# No constants are given. Whether binding was seen depends on the method and setting. For part of these data: Binding seen in cells or lysates may run through a third protein. Some entries that bind do so weakly or less than the wild type. For part of these data: Tags and fused reporters may be left off the sequences shown.
# Legend:
# Conditions in all cases: remark: other sources report otherwise
# [1] = molecular target: recombinant CypD (purified, in solution), P30405; assay: GST pull down, cell-free, CypD immunoblot (FIG. 10A); abolished by cyclosporine A, not by geldanamycin
# [2] = molecular target: recombinant CypD (purified, in solution), P30405; assay: GST pull down of recombinant CypD, CypD immunoblot
# [3] = molecular target: Cyclophilin D (CypD, peptidylprolyl isomerase F, ppif), endogenous protein of Raji mitochondrial extracts (human), P30405; assay: co-immunoprecipitation with antibody to TRAP-1 from Raji mitochondrial extracts, Western blot; complex prevented by cyclosporine A, not by geldanamycin
binding [1],binding [2],binding [3],Binder
binds,binds,–,"GST-TRAP-1, Q12931 60-704 (protein, UniProt Q12931 60-704, looked up, not shown: a dimerising Fc or GST) STQTAEDKEEPLHSIISSTESVQGSTSKHEFQAETKKLLDIVARSLYSEKEVFIRELISNASDALEKLRHKLVSDGQALPEMEIHLQTNAEKGTITIQDTGIGMTQEELVSNLGTIARSGSKAFLDALQNQAEASSKIIGQFGVGFYSAFMVADRVEVYSRSAAPGSLGYQWLSDGSGVFEIAEASGVRTGTKIIIHLKSDCKEFSSEARVRDVVTKYSNFVSFPLYLNGRRMNTLQAIWMMDPKDVREWQHEEFYRYVAQAHDKPRYTLHYKTDAPLNIRSIFYVPDMKPSMFDVSRELGSSVALYSRKVLIQTKATDILPKWLRFIRGVVDSEDIPLNLSRELLQESALIRKLRDVLQQRLIKFFIDQSKKDAEKYAKFFEDYGLFMREGIVTATEQEVKEDIAKLLRYESSALPSGQLTSLSEYASRMRAGTRNIYYLCAPNRHLAEHSPYYEAMKKKDTEVLFCFEQFDELTLLHLREFDKKKLISVETDIVVDHYKEEKFEDRSPAAECLSEKETEELMAWMRNVLGSRVTNVKVTLRLDTHPAMVTVLEMGAARHFLRMQQLAKTQEERAQLLQPTLEINPRHALIKKLNQLRASEPGLAQLLVDQIYENAMIAAGLVDDPRAMVGRLNELLVKALERH"
–,–,binds,"TRAP-1 (TNF Receptor-Associated Protein 1), endogenous protein of Raji mitochondrial extracts, Q12931 60-704 (protein, human, UniProt Q12931 60-704, looked up) STQTAEDKEEPLHSIISSTESVQGSTSKHEFQAETKKLLDIVARSLYSEKEVFIRELISNASDALEKLRHKLVSDGQALPEMEIHLQTNAEKGTITIQDTGIGMTQEELVSNLGTIARSGSKAFLDALQNQAEASSKIIGQFGVGFYSAFMVADRVEVYSRSAAPGSLGYQWLSDGSGVFEIAEASGVRTGTKIIIHLKSDCKEFSSEARVRDVVTKYSNFVSFPLYLNGRRMNTLQAIWMMDPKDVREWQHEEFYRYVAQAHDKPRYTLHYKTDAPLNIRSIFYVPDMKPSMFDVSRELGSSVALYSRKVLIQTKATDILPKWLRFIRGVVDSEDIPLNLSRELLQESALIRKLRDVLQQRLIKFFIDQSKKDAEKYAKFFEDYGLFMREGIVTATEQEVKEDIAKLLRYESSALPSGQLTSLSEYASRMRAGTRNIYYLCAPNRHLAEHSPYYEAMKKKDTEVLFCFEQFDELTLLHLREFDKKKLISVETDIVVDHYKEEKFEDRSPAAECLSEKETEELMAWMRNVLGSRVTNVKVTLRLDTHPAMVTVLEMGAARHFLRMQQLAKTQEERAQLLQPTLEINPRHALIKKLNQLRASEPGLAQLLVDQIYENAMIAAGLVDDPRAMVGRLNELLVKALERH"

# — patent publication US20090099080A1
